PubChem BioAssay AID1224828 – NIAID, 2016
Aim: 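Knock-downs that increase or decrease LPS-induced p65 nuclear translocation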 (primary screen). System: mouse RAW264.7 G9 macrophage reporter cells (GFP-p65, Tnf promoter-mCherry). Reagent: siRNA pool against mouse genes, 100 nM. Time to read-out: 2 days siRNA transfection, then 40 min LPS before fixation. Treatment: LPS (Salmonella minnesota R595) at 10 ng/ml. Detection: 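Microscopy ratio of nuclear to perinuclear-ring GFP-p65 signal, scaled to the plate median; gene score is the average of two replicate robust z-scores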. Direction: p65 translocation robust z-score: higher = more nuclear NF-kappaB p65 after LPS than the plate median; nuclear/cytoplasmic p65 ratio: higher = more nuclear NF-kappaB p65. Active means: 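Active if robust z is above 3.3 (negative regulators) or below -1.56, the Tlr4 control median (positive regulators); activity score 50 or more; control wells not called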. Meaning of the calls: active = hit (p65 shift raised or lowered); inactive = no clear change.
This is a random part of about 17,000 reagents. 762 of them (4.5%) were called active. 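Active calls include both raised and lowered p65 entry, mostly lowered; wells with fewer than 50 cells lack a z-score.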 The raw values are shown without normalisation. The numbers tell different reagents against one gene apart.

no.	gene symbol	reagent	p65 translocation robust z-score	nuclear/cytoplasmic p65 ratio, rep 1	nuclear/cytoplasmic p65 ratio, rep 2	low cell count flag	Outcome
1	Tulp4	1		1.3	1.26	fewer than 50 cells per well; well left out of scoring	inactive
2	Cenatac	1	2.49	1.69	1.93	enough cells to score	inactive
3	Cpxm1	1	-0.24	1.54	1.74	enough cells to score	inactive
4	Rab40c	1	0.03	1.56	1.48	enough cells to score	inactive
5	Kdelr1	1	-0.62	1.44	1.37	enough cells to score	inactive
6	Arhgap35	1	2.62	1.69	2.01	enough cells to score	inactive
7	Mob3a	1		1.64	1.98	fewer than 50 cells per well; well left out of scoring	inactive
8	Cebpg	1	1.23	1.66	1.51	enough cells to score	inactive

Next part (2 carried over from the part before).
no.	gene symbol	reagent	p65 translocation robust z-score	nuclear/cytoplasmic p65 ratio, rep 1	nuclear/cytoplasmic p65 ratio, rep 2	low cell count flag	Outcome
7	Mob3a	1		1.64	1.98	fewer than 50 cells per well; well left out of scoring	inactive
8	Cebpg	1	1.23	1.66	1.51	enough cells to score	inactive
9	Scrib	1	-0.44	1.36	1.17	enough cells to score	inactive
10	Vmn1r205	1		1.37	1.2	fewer than 50 cells per well; well left out of scoring	inactive
11	Defb41	1		1.21	1.4	fewer than 50 cells per well; well left out of scoring	inactive
12	Slc6a14	1		1.26	1.21	fewer than 50 cells per well; well left out of scoring	inactive
13	Ubtd1	1	-0.2	1.62	1.73	enough cells to score	inactive
14	Snx1	1		1.48	0.964	fewer than 50 cells per well; well left out of scoring	inactive
15	Pfn2	1	-0.01	1.5	1.36	enough cells to score	inactive
16	Zfpl1	1	1.33	1.59	1.23	enough cells to score	inactive
17	Gypc	1		1.39	1.09	fewer than 50 cells per well; well left out of scoring	inactive
18	Kif5b	1	0.66	1.62	1.42	enough cells to score	inactive
19	Zmym5	1	-0.24	1.45	1.45	enough cells to score	inactive
20	Zfp523	1	0.26	1.58	1.51	enough cells to score	inactive
21	Prl2b1	1	0.26	1.46	1.21	enough cells to score	inactive
22	Mtnr1b	1	0.23	1.58	1.59	enough cells to score	inactive
23	Sftpa1	1	-0.64	1.43	1.49	enough cells to score	inactive
24	Dcpp1	1	-1.55	1.34	1.33	enough cells to score	inactive
25	Dcpp1	2		1.38	1.24	fewer than 50 cells per well; well left out of scoring	inactive
